No constants are given. Whether binding was seen depends on the method and setting. Binding seen in cells or lysates may run through a third protein. Some binding calls cover weakened binding; strength is not graded here.
Legend:
[1] = target: Yes-associated protein (human (endogenous in SCC13, NHK and HARA)) (UniProt P46937); test: co-IP
[2] = target: Yes-associated protein (human (endogenous in SCC13, NHK and HARA)) (UniProt P46937); test: proximity ligation
[3] = target: Yes-associated protein (human (endogenous in SCC13, NHK and HARA)) (UniProt P46937); test: co-IP; remark: listed apart in the source

By UniProt entry, the sequences of proteins in these tests, tags left out.
UniProt P46937: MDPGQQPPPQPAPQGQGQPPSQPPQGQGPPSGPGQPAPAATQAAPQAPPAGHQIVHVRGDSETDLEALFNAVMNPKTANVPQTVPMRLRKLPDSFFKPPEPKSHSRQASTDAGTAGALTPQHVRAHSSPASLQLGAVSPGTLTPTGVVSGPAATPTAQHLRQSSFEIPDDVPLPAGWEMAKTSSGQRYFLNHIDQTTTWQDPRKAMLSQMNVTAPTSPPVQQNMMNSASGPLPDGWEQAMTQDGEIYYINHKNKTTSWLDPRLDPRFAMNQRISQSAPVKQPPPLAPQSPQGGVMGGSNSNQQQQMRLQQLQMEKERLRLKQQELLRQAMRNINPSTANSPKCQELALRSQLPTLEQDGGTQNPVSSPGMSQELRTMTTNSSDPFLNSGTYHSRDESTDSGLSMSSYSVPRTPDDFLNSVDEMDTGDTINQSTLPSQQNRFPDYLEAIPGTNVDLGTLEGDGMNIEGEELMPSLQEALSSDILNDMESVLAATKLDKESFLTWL
UniProt Q14839: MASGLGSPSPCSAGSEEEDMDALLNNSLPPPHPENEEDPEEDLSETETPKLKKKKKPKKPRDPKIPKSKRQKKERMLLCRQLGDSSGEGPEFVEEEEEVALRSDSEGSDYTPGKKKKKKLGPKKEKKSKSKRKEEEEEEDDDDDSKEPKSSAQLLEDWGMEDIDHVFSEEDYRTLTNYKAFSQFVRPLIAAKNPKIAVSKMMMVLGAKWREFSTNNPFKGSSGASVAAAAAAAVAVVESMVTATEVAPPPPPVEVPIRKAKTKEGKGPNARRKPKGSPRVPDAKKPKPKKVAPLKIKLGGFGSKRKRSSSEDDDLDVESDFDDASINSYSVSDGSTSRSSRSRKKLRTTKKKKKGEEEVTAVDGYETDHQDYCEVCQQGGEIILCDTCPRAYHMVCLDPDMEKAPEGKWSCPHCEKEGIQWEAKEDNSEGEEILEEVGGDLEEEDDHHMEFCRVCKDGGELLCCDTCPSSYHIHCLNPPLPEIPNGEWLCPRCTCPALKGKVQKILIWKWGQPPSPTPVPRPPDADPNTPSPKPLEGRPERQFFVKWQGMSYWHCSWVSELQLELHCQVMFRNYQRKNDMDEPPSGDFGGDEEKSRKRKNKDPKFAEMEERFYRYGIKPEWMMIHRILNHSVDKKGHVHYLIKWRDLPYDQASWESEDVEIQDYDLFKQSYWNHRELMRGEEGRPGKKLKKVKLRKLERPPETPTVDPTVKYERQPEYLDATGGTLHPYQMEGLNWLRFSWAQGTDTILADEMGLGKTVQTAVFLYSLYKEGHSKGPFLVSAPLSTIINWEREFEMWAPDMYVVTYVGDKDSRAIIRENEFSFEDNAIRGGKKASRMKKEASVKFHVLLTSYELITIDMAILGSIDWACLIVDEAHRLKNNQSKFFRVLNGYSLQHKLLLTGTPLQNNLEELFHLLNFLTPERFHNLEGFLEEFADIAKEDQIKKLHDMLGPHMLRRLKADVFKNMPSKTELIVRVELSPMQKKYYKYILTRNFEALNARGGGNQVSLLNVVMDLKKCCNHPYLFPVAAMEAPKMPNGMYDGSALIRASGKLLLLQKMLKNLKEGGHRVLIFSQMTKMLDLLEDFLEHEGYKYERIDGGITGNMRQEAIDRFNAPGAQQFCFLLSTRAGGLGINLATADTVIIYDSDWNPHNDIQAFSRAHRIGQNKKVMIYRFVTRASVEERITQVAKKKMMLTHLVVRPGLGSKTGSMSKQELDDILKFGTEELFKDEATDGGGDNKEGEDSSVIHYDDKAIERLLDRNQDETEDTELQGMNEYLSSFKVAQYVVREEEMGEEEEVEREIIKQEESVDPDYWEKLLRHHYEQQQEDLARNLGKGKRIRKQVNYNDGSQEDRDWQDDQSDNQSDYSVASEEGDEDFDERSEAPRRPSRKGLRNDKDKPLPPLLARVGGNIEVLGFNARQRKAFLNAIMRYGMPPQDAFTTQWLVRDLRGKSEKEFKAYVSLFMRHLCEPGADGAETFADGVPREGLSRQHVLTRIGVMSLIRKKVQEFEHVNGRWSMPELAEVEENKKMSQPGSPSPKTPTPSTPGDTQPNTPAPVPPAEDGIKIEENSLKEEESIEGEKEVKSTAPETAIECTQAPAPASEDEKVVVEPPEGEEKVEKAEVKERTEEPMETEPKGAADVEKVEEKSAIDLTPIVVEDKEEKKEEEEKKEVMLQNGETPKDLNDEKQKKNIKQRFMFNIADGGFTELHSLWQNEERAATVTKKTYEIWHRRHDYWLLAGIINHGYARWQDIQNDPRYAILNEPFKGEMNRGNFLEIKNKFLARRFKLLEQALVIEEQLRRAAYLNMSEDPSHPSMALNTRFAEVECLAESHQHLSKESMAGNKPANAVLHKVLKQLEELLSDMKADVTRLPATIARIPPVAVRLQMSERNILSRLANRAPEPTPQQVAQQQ
UniProt Q5UIP0: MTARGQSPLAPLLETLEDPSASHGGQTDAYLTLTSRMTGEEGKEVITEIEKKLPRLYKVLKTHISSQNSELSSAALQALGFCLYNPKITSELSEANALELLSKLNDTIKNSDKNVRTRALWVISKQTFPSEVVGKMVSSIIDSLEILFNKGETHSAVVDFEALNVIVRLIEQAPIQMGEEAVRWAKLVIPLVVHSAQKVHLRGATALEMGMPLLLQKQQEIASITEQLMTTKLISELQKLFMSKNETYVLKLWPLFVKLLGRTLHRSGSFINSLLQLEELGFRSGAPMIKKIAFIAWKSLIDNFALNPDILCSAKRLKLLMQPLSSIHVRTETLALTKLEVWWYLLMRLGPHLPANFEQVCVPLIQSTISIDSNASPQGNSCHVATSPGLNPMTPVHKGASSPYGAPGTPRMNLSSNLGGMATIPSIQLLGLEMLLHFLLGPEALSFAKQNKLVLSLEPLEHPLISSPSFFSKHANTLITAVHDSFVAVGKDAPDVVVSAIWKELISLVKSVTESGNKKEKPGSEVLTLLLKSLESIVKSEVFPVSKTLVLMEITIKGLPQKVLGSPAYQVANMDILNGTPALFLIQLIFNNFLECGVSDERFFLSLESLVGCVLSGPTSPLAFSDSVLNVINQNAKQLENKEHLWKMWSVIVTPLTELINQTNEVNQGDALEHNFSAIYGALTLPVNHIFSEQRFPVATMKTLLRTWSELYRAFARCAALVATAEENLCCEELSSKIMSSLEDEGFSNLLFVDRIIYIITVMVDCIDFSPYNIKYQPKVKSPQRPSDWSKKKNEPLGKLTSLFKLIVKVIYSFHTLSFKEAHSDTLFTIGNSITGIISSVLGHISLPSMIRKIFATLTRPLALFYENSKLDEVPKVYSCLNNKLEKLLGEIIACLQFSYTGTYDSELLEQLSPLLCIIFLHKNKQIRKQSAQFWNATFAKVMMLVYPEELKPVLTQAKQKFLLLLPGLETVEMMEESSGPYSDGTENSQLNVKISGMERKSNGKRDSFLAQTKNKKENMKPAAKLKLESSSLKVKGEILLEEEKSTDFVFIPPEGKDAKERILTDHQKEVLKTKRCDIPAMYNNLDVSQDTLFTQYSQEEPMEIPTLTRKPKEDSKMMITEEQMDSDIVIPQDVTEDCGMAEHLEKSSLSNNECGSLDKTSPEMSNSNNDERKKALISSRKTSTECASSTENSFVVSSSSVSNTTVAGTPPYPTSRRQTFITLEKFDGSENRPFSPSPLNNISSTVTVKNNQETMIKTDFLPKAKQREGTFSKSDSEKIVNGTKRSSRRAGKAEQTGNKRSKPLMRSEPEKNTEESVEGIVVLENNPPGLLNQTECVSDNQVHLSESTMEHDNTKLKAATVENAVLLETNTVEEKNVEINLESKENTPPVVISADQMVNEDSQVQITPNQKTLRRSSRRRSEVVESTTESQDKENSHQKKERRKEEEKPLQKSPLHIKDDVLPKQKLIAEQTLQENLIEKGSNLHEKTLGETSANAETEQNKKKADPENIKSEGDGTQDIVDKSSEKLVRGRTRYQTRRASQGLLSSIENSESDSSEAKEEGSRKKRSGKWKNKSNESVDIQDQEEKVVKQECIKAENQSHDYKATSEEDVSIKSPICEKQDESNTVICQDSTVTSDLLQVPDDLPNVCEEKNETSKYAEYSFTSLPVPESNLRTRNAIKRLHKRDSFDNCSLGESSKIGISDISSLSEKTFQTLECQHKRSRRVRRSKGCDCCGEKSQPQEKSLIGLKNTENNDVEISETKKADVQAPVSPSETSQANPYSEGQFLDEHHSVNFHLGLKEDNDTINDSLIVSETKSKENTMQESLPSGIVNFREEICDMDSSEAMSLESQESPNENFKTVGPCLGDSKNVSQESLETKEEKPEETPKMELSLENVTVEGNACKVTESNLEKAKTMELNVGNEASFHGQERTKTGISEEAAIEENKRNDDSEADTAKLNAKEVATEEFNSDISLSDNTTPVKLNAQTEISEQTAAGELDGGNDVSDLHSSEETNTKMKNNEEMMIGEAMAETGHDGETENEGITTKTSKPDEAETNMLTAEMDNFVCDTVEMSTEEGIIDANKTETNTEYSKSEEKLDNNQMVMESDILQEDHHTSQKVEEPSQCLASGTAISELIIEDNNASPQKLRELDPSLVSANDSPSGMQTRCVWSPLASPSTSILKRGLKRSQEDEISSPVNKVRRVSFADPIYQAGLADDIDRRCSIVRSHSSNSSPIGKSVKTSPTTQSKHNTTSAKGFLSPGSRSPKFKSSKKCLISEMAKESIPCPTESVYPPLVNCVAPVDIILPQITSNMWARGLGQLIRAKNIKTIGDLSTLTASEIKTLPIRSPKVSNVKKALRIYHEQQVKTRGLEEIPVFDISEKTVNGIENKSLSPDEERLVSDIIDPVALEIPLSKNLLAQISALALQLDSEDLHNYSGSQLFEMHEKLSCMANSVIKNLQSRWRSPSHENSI

“Chromodomain-helicase-DNA-binding protein 4 (from UniProt Q14839 1-1912)” was tested, and the binding [1] was “binds”.

RIF1 (from UniProt Q5UIP0 1-2472) was tested, and the binding [1] was “binds”, the binding [2] was “binds” and the binding [3] was “binds”.

Reference: paper doi:10.1101/2024.12.20.629444
